We go through 22 substances from patent US20040235049A1 (priority 2001, published 2004).

Data set [1] is described as follows: general procedure: Fmoc solid-phase peptide synthesis; methyl-2,3-O-isopropylidene-D-tartryl-Val-PEGA resin; Fmoc-PAL-PEG-PS; Novasyn TGR; HBTU/HOBt/DIEA; TBTU/HOBt/DIEA. The following applies: whole synthesis, scale of the general procedure 0.02 mole (24 peptides), 0.1 mmole; for final HPLC purity: analytical RP-HPLC, MALDI-TOF.
Data set [2] in a line: general procedure: Fmoc solid-phase peptide synthesis; Novasyn TGR; HBTU/HOBt/DIEA; TBTU/HOBt/DIEA. The following applies: whole synthesis, scale 0.1 mmole.

For some assays here: Plain letter strings leave the end groups untold.

Consider VIPTSGDVVV, for which, in data set [1], the “final HPLC purity” value turned out to be 86% and the isolated yield is 26%.

For GLDVSVIPTS, in data set [1], the “final HPLC purity” value came to 36% and the isolated yield worked out at 29%.

For the substance DVSVIPTSGD, in data set [1], the “final HPLC purity” value came out at 63% and the isolated yield is recorded as 26%.

As for GLGINAVAYY, in data set [1], the “final HPLC purity” value is on record as 15% and the isolated yield came to 6%.

As to YGKAIPLEAI, in data set [1], the “final HPLC purity” value is given as 89% and the isolated yield came to 30%.

Regarding IPTSGDVVVV, in data set [1], the “final HPLC purity” value is given as 40% and the isolated yield was 21%.

For AIPLEAIKGG, in data set [1], the “final HPLC purity” value was 80% and the isolated yield was determined as 30%.

Take GKAIPLEAIK: in data set [1], the “final HPLC purity” value was 90% and the isolated yield is recorded as 32%.

Turning to PTSGDYVVVA, in data set [1], the “final HPLC purity” value came out at 46% and the isolated yield worked out at 17%.

Turning to VSVIPTSGDV, in data set [1], the “final HPLC purity” value turned out to be 60% and the isolated yield is 28%.

As to PLEAIKGGRH, in data set [1], the “final HPLC purity” value turned out to be 31% and the isolated yield came out at 35%.

Take LEAIKGGRHL: in data set [1], the “final HPLC purity” value is listed as 76% and the isolated yield turned out to be 31%.

Take SVIPTSGDVV: in data set [1], the “final HPLC purity” value was 64% and the isolated yield is listed as 30%.

Consider ELAAKLSGLG, for which, in data set [1], the “final HPLC purity” value is 72% and the isolated yield came out at 32%.

As for biotin-GGKAYVLAG peptide (P-0193), in data set [2], the crude mass is 69 mg and the isolated mass was 35.72 mg.

With AAKLSGLGIN, in data set [1], the “final HPLC purity” value stood at 72% and the isolated yield worked out at 30%.

Turning to KAIPLEAIKG, in data set [1], the “final HPLC purity” value was 91% and the isolated yield came out at 30%.

With SGLGINAVAY, in data set [1], the “final HPLC purity” value worked out at 86% and the isolated yield stood at 60%.

For IPLEAIKGGR, in data set [1], the “final HPLC purity” value was found to be 76% and the isolated yield came to 30%.

With LDVSVIPTSG, in data set [1], the “final HPLC purity” value was 78% and the isolated yield was 28%.

Regarding EAIKGGRHLL, in data set [1], the “final HPLC purity” value is recorded as 75% and the isolated yield is listed as 34%.

As for LAAKLSGLGI, in data set [1], the “final HPLC purity” value was 75% and the isolated yield came to 27%.
